Measured values from article PMC11414060.
These are yes or no findings as the source states them, for the method shown. Binding seen in cells or lysates may run through a third protein. Some binding calls cover weakened binding; strength is not graded here.

Biological target: FLAG-FTO (human) (UniProt Q9C0B1)
Experiment: co-IP; IP with anti-FLAG antibody from lysate of HEK293 cells expressing FLAG-FTO; lysates treated with Benzonase prior to IP; blot for endogenous ZBTB48

B1: ZBTB48 (endogenous) (protein, UniProt P10074 1-688)
chain: MDGSFVQHSVRVLQELNKQREKGQYCDATLDVGGLVFKAHWSVLACCSHFFQSLYGDGSGGSVVLPAGFAEIFGLLLDFFYTGHLALTSGNRDQVLLAARELRVPEAVELCQSFKPKTSVGQAAGGQSGLGPPASQNVNSHVKEPAGLEEEEVSRTLGLVPRDQEPRGSHSPQRPQLHSPAQSEGPSSLCGKLKQALKPCPLEDKKPEDCKVPPRPLEAEGAQLQGGSNEWEVVVQVEDDGDGDYMSEPEAVLTRRKSNVIRKPCAAEPALSAGSLAAEPAENRKGTAVPVECPTCHKKFLSKYYLKVHNRKHTGEKPFECPKCGKCYFRKENLLEHEARNCMNRSEQVFTCSVCQETFRRRMELRVHMVSHTGEMPYKCSSCSQQFMQKKDLQSHMIKLHGAPKPHACPTCAKCFLSRTELQLHEAFKHRGEKLFVCEECGHRASSRNGLQMHIKAKHRNERPHVCEFCSHAFTQKANLNMHLRTHTGEKPFQCHLCGKTFRTQASLDKHNRTHTGERPFSCEFCEQRFTEKGPLLRHVASRHQEGRPHFCQICGKTFKAVEQLRVHVRRHKGVRKFECTECGYKFTRQAHLRRHMEIHDRVENYNPRQRKLRNLIIEDEKMVVVALQPPAELEVGSAEVIVESLAQGGLASQLPGQRLCAEESFTGPGVLEPSLIITAAVPEDCDT
  binding: binds
